Reference: PubChem BioAssay AID2685 (National Center for Advancing Translational Sciences (NCATS), 2010)
The other results are listed elsewhere or left out. These are further read-outs of the screen, such as a control signal, another cell line or another target. No call is given for them. Compounds called inactive in the main read-out are mostly missing here. The note in brackets gives the kind of curve behind each potency; many fits are weak.

Assay: qHTS Assay for Lipid Storage Modulators in Drosophila S3 Cells;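 for cell number change: cells counted by Cell Tracker Red CMTPX staining in the red channel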
Settings: BODIPY lipid droplet fluorescence, 18-24 h; for cell number change: measured here: cell count max response, cells fed with added oleic acid
Outline: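 Drosophila S3 cells loaded with oleic acid (400 uM, as added) and compounds at several concentrations; lipid droplets imaged by 488-nm laser-scanning cytometry, 500–530 nm intensity and object ratio to cell channel. Percent activity normalized to 20 uM Triacsin C.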

[1] = measured here: lipid fluorescence (Fed channel) AC50, cells fed with added oleic acid
[2] = measured here: cell number channel AC50, cells fed with added oleic acid

Row | Structure (SMILES) | cell number change [%] | AC50 [1] | AC50 [2]
1 | CCCCC(=O)Nc1ccc(C(=O)NCCc2ccccc2)cc1 | 7.4 | 0.82 µM [rising, full curve, poor fit] | –
2 | CN(CC(=O)Nc1cccc(F)c1)C(=O)Cn1cnc2c1c(=O)n(C)c(=O)n2C | 0.901 | 0.651 µM [falling, single point] | –
3 | COc1cccc(NC(=O)NC2CCN(CC(=O)Nc3ccccc3[N+](=O)[O-])CC2)c1 | 0.87 | 29.1 µM [falling, partial curve, poor fit] | –
4 | CCCCOC(=O)C1[C@H]2C(=O)N(Cc3cccs3)C[C@]23C=C[C@H]1O3 (some centres undefined) | 39.7 | – | 0.00461 µM [rising, full curve, poor fit]
5 | CCCCn1c(N)c(N(CC)C(=O)c2ccco2)c(=O)[nH]c1=O | 4.03 | 0.146 µM [rising, full curve, poor fit] | –
6 | N/C(=N\OC(=O)/C=C/c1ccccc1Cl)c1ccccn1 | 24.7 | 3.66 µM [rising, full curve] | –
7 | COc1ccc(C2=NS(=O)(=O)N(C)C(C(=O)NCc3ccccn3)=C2)cc1 | 2.99 | 32.6 µM [rising, single point] | –
8 | O=C(Cc1ccc(S(=O)(=O)N2CCOCC2)s1)N1CCN(S(=O)(=O)c2cccc([N+](=O)[O-])c2)CC1 | 4.77 | 23.1 µM [rising, single point] | –
9 | CCOC(=O)c1c(CN2CCCCC2C)oc2ccc(OC)cc12 (centres undefined) | -11 | 1.64 µM [rising, partial curve, poor fit] | –
10 | Cc1ccc(NC(=S)N(CCCN2CCOCC2)Cc2ccccn2)cc1Cl | 96.3 | – | 29.1 µM [rising, single point]
11 | COc1cc(NC(=S)N2CCN(S(C)(=O)=O)CC2)cc(OC)c1 | 23.1 | 5.17 µM [falling, single point] | –
12 | CC(C)CC(=O)CN1C(=O)C2(OCCO2)c2ccccc21 | -78.4 | – | 23.1 µM [falling, partial curve, poor fit]
13 | CC12CCC(C(=O)Nc3ccccc3)(C/C1=N\O)C2(C)C (centres undefined) | -11.9 | 1.3 µM [falling, partial curve] | 0.92 µM [falling, partial curve]
14 | O=C1CN=C(Nc2ccc(Cl)cc2)N1c1ccccc1 | – | – | 6.51 µM [rising, single point]
15 | Cc1ccc(-c2csc3nc(CN(C)Cc4ccccc4)[nH]c(=O)c23)cc1 | 44 | 6.51 µM [rising, single point] | 6.51 µM [rising, partial curve, poor fit]
16 | CC(=O)Nc1ccc(NC(=O)c2ccc(NC(=O)c3ccccc3)cc2)cc1 | 5.41 | – | 5.17 µM [rising, single point]
17 | O=C(NNC(=O)C1[C@H]2CCCC[C@@H]12)NC1CCCCC1 (some centres undefined) | -4.03 | 0.103 µM [rising, full curve, poor fit] | –
18 | CCOc1cccc(C(=O)Nc2ccccc2N2CCN(C(=O)C(C)C)CC2)c1 | 2.74 | 29.1 µM [rising, partial curve] | –
19 | COc1cc(NC(=S)NC(=O)c2ccccc2F)ccc1NC(=O)c1ccco1 | -1.15 | 0.13 µM [rising, full curve, poor fit] | –

Only AC50 [2] and AC50 [1] (two entries from above):
Row | Structure (SMILES) | AC50 [2] | AC50 [1]
2 | CN(CC(=O)Nc1cccc(F)c1)C(=O)Cn1cnc2c1c(=O)n(C)c(=O)n2C | – | 0.651 µM [falling, single point]
18 | CCOc1cccc(C(=O)Nc2ccccc2N2CCN(C(=O)C(C)C)CC2)c1 | – | 29.1 µM [rising, partial curve]

(next part)

Row | Structure (SMILES) | cell number change [%] | AC50 [1] | AC50 [2]
20 | CCN1C(=O)/C(=C/c2cnn(C)c2C)SC1=S | 23.1 | 0.082 µM [rising, full curve, poor fit] | –
21 | CC(C)(C)C(=O)CC(=O)Nc1ccc(Cl)c(N)c1 | -13.7 | 0.0651 µM [rising, full curve, poor fit] | –
22 | Cc1cc(=O)oc(C)c1C(=O)N1CCN(C)CC1 | 3.09 | 0.58 µM [falling, full curve] | –
23 | O=C(Nc1ccc(Cl)cc1F)C1CC(=O)N(Cc2ccco2)C1 (centres undefined) | – | – | 6.51 µM [rising, single point]
24 | COC(=O)c1cc(COc2ccc3ccc(=O)oc3c2)c(C)o1 | 0.828 | 6.51 µM [rising, single point] | –
25 | O=[N+]([O-])c1ccc(N2CCCCCC2)c(S(=O)(=O)N2CCCCC2)c1 | -18.2 | – | –
26 | CCOC(=O)NC(Nc1ccc(S(N)(=O)=O)cc1)(C(=O)OCC)C(F)(F)F (centres undefined) | -17.9 | 23.1 µM [falling, single point] | –
27 | CC1CCC(C(C)C)C(OC(=O)COC(=O)c2cc(O)ccc2N)C1 (centres undefined) | -64.1 | 32.6 µM [falling, single point] | 32.6 µM [falling, partial curve]
28 | CCOc1ccc(OCC)c(NC(=O)C2CCCN(c3nc(C)cc(C)n3)C2)c1 (centres undefined) | – | 5.17 µM [rising, single point] | 4.11 µM [rising, single point]
29 | COc1ccc(-c2ccc(/C=C3/C(=N)N4C=CSC4=NC3=O)o2)c([N+](=O)[O-])c1 | 13.6 | – | –
30 | CCOC(=O)c1ccc2[nH]c3ccccc3c2c1 | -30.8 | 29.1 µM [falling, single point] | –
31 | O=S(=O)(N1CCCCCC1)N1CCN(S(=O)(=O)N2CCOCC2)CC1 | -30.8 | 3.66 µM [falling, full curve] | 0.731 µM [falling, full curve]
32 | COc1ccccc1OCCOc1ccc(C(=O)c2ccccc2)cc1 | 6.19 | 11.6 µM [rising, partial curve, poor fit] | –
33 | COc1ccc(NC(=O)Nc2ccc(N(C)C)cc2)cc1 | 1.89 | 11.6 µM [rising, single point] | –
34 | CCc1cccc2c(C(=O)CN3C(=O)C(=O)N(C4CCCC4)C3=O)c[nH]c12 | -14.5 | 1.03 µM [falling, full curve] | –
35 | O=C(Nc1ccc2nc3n(c(=O)c2c1)CCCC3)c1ccccc1[N+](=O)[O-] | -37.3 | 13 µM [falling, partial curve] | 4.61 µM [rising, single point]
36 | CN1CCN(c2ccc(S(=O)(=O)N3CCCCC3)cc2NC(=O)Cc2ccccc2F)CC1 | -1.08 | – | –
37 | Cc1nc(=O)c(-c2ccccc2)c(C)n1-c1cccc(C(=O)O)c1 | -6.02 | 0.146 µM [falling, full curve] | –
